PubChem BioAssay AID588497 (NMMLSC, 2011)
The campaign covered roughly 360,000 compounds. About 780 (0.22%) were called active. Inconclusive results, whose numbers are uncertain, are shown with a selection of clear calls. Rule as the data show it: active = inhibition above about 35% (passing the limit was not always enough); inconclusive = no clear call, values can overlap the other calls.

Each compound was assayed on Botulinum neurotoxin type F light chain protease (Clostridium botulinum) (assay: BoNT/F light chain protease inhibitors, primary screen, biochemical, flow cytometry, MLPCN library (AID 588497; also: plate controls were buffer without enzyme for full effect and enzyme alone for no effect)). Conditions: Multiplex microsphere protease cleavage assay, at 10 µM, stronger effect = higher value.

Row | SMILES | inhibition
1 | CNc1ccc(C=C2C=Cc3ccccc32)cc1 | inactive: -9%
2 | Cc1cc(C)cc(NS(=O)(=O)c2ccc(NC(=O)c3ccccc3C(=O)O)cc2)c1 | inconclusive: 29.7%
3 | N#CC1(N2CCN(C(=O)c3ccccc3)CC2)CCCCC1 | inconclusive: -10.3%
4 | CC1(C)c2ccccc2-c2nc3ccccc3cc2C1O (configuration not stated) | inconclusive: -4.1%
5 | COc1ccc(C2NC(=O)C(C)S2)cc1 (configuration not stated) | inactive: -8.8%
6 | O=C(NCCCn1ccnc1)c1cc(C(=O)C2CCCCC2)c[nH]1 | inactive: 3.8%
7 | CCC(C)CNC(=O)c1cccc(OC2CCN(CC(C)(C)C)CC2)c1 (configuration not stated) | inconclusive: 18.5%
8 | CSc1ccc(Cl)c(C(=O)N2CCOc3ccccc32)c1 | inconclusive: -40.6%
9 | CC(C)(C)c1ccc(NC(=O)CSc2n[nH]c(=O)n2C2CC2)cc1 | inactive: -0.8%
10 | CCOC(=O)CNC(=O)CSc1nnc(-c2ccccc2)n1Cc1ccco1 | inconclusive: 8.4%
11 | CCOC(=O)Cc1csc(NS(=O)(=O)c2cc(Cl)ccc2Cl)n1 | inconclusive: -56.2%
12 | CC(=O)OCC(=O)Nc1c(C)cc(C)cc1C | inactive: -4.3%
13 | O=C(NCCCN1CCOCC1)c1cc2c(s1)CCC2 | inconclusive: 13.2%
14 | COC(=O)c1cc(-c2ccc(S(=O)(=O)N3CCCC(C)C3)cc2)c(C(F)(F)F)s1 (configuration not stated) | inconclusive: 48%
15 | COCCCNC(=S)N/N=C/c1ccccc1O | inconclusive: 29.5%
16 | Brc1cnc2nc[nH]c2c1 | inconclusive: 15.8%
17 | CCC(=O)Nc1cccc(C(=O)N(Cc2ccccc2)Cc2ccccc2)c1 | active: 44.1%
18 | CCOC(=O)N1CCN(C(=O)/C(=C/c2ccccc2OC)NC(=O)c2ccccc2)CC1 | inactive: -1.7%
19 | Nc1c2c(nc3ccccc13)CCN(Cc1ccccc1)C2 | inconclusive: 4%
20 | CC(C)c1ccc2[nH]c3c(c2c1)CCC/C3=N\NC(=O)c1ccncc1 | inconclusive: -42.9%
21 | Cc1c(OCC(=O)N2CCC(C(=O)O)CC2)ccc2c3c(c(=O)oc12)CCC3 | inactive: 8.9%
22 | CCOC(=O)c1cn(CC(=O)Nc2ccccc2C(=O)OCC)nn1 | inconclusive: 36.4%
23 | Clc1ccc2c(c1)-c1[nH]ncc1CS2 | inconclusive: -2.9%
24 | CN(C)c1cccc2c1c(NC(=O)Nc1ccc(F)cc1F)nn2C | inconclusive: -41.9%
25 | COc1ccc(NC(=O)c2cc(CC(C)C)nc3ccccc23)cc1 | inconclusive: -1.5%
26 | Cc1cc(C)c(C)c(OCCCCN2CCCCC2)c1 | inconclusive: -27.1%
27 | COC(=O)c1c(C(=O)OC)c(C)n(Cc2cccnc2)c1C | inconclusive: -22.2%

As entered above:
For inhibition, CN(C)c1cccc2c1c(NC(=O)Nc1ccc(F)cc1F)nn2C has the entry inconclusive: -41.9%
For inhibition, COCCCNC(=S)N/N=C/c1ccccc1O has the entry inconclusive: 29.5%
